From patent publication US20050226863A1 (MIT, published 2005)
Results are given in words; binding and its absence hold for the method and conditions named. Some binding calls cover weakened binding; strength is not graded here.

Legend:
[1] = biological target: T1, peptide consisting of the first 20 amino acids of htt, …-biotin; assay: yeast surface display, flow cytometry, labeled at 1 nM huntingtin peptide
T1 sequence (peptide, C-terminal biotin): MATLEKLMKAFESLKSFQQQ

[2] = biological target: T1, peptide consisting of the first 20 amino acids of htt, …-biotin; assay: yeast surface display, flow cytometry dot plot; FL1 = display, FL2 = binding of the huntingtin peptide at 1 nM (concentration from the legend)
[3] = biological target: T1, peptide consisting of the first 20 amino acids of htt, …-biotin; assay: yeast surface display, flow cytometry dot plot; FL1 = display, FL2 = binding of the huntingtin peptide at 1 nM

Measured: binding

B1: engineered (affinity matured) disulfide-free SDIb of Examples 1 and 3 (other)
VL: SRPVLTQSPSVSAAPRQRVTISVSGSNSNIGSNTVNWIQQLPGRAPELLMYDDDLLAPGVSDRFSGSRSGTSASLTISGLQSEDEADYYAATWDDSLNDWVFGGGTKVTVLS
notes: expressed in yeast cytoplasm for the aggregation assay (construct not described); also called engineered SDIb
binds: [1] | [2] | [3]
